Screening data, single-dose tests

Chains of the proteins cited; added tags and fusions are not shown.
UniProt I6X8D2, whole entry: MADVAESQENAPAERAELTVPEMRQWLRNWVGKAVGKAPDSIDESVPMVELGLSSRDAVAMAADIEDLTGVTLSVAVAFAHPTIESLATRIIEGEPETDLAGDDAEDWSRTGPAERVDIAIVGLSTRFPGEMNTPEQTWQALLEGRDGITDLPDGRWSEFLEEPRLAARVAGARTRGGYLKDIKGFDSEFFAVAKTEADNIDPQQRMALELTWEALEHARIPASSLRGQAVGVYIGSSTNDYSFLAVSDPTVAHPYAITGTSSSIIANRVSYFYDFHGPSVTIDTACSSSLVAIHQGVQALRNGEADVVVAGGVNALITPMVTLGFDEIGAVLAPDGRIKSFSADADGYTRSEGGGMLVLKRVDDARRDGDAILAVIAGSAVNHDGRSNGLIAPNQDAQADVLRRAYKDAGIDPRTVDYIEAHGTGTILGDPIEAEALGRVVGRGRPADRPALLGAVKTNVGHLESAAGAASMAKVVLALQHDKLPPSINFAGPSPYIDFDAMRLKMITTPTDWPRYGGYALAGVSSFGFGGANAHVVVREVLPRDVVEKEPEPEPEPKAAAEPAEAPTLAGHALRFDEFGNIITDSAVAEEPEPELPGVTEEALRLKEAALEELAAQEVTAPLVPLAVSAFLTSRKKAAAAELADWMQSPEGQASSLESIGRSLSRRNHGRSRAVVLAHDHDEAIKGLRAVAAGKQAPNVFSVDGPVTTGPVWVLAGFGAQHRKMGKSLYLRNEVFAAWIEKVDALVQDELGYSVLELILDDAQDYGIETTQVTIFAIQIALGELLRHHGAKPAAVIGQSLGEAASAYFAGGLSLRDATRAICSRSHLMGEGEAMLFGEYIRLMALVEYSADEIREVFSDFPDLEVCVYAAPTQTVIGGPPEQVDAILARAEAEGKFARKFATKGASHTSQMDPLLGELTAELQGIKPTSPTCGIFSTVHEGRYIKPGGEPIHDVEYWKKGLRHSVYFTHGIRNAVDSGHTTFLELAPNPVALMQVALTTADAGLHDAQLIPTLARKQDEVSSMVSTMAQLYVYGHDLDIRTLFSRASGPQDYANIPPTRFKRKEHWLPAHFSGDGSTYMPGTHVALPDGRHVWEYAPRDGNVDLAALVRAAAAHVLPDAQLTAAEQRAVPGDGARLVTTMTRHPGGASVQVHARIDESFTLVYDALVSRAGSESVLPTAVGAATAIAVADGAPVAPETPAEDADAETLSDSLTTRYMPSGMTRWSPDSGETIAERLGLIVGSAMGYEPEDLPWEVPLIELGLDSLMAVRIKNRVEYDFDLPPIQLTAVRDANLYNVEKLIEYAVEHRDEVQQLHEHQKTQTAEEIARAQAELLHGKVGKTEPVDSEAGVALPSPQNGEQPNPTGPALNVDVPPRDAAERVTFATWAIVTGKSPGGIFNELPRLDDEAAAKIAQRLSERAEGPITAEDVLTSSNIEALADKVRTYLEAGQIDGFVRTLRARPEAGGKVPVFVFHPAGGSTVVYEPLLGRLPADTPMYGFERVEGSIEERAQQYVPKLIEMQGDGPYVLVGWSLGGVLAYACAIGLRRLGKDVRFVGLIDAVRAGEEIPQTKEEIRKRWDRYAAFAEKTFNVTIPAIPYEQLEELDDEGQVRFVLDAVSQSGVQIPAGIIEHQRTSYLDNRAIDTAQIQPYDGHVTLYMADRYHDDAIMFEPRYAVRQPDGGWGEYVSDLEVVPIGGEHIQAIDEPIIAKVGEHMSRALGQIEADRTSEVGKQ

The filed quantity is “Percent Effect” (%). How 0% and 100% were set is not recorded. Most values in the screen are low, and negative values occur. This is an unselected part of the compounds tested. A dash means the value is not listed here; it may have been measured.

Toxoplasma: 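Assay of Toxoplasma gondii numbers, read through their beta-galactosidase reporter with a colour substrate. Compounds at 10 µM. The record gives no direction; the compounds picked for IC50 retests had high values, so higher reads as fewer parasites. Of about 67,000 compounds tested this way, about 260 (0.38%) reached 50% or more in at least one test.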
Pks13 thioesterase: 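Enzyme assay of the thioesterase domain of polyketide synthase 13; the read-out is not stated. Target: Polyketide synthase Pks13, Mycobacterium tuberculosis (UniProt I6X8D2). Compounds at 30 µM. The record gives no direction; the compounds picked for IC50 retests had high values, so higher reads as stronger inhibition. Size under these conditions: about 67,000 compounds, about 300 of them at 50% or above in at least one test.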

| SMILES | Toxoplasma | Pks13 thioesterase |
|---|---|---|
| `O=C(O)C(F)(F)F.[H][C@@]12CCCO[C@]1([H])[C@H](NC(=O)c1ccnnc1)CN(c1ncccn1)C2` | 1.408 | - |
| `CCCNC(c1cccnc1)c1ccc(F)c(C)c1.Cl.Cl` (centres undefined) | -19.39 | - |
| `COCCN1CCC(CN(CC2CCCO2)C(=O)Cc2cccs2)CC1` (centres undefined) | -2.395 | 3.134 |
| `CS(=O)(=O)NCC(=O)N[C@H]1CN(c2cnccn2)C[C@@H]1C1CC1` | 2.771 | 13.92 |
| `Cc1cnc(CN(Cc2ccc(Cl)s2)C2CCN(C)C2)o1` (centres undefined) | -10.6 | -18.13 |
| `c1cncc(OC[C@]23COC[C@H]2CN(C2CCOCC2)C3)c1` | - | -3.416 |
| `COc1ccc(-c2nnc(C(C)N3CCC4(CC3)OCCO4)o2)cc1` (centres undefined) | 0.3793 | -33.63 |
| `CS(=O)(=O)NC1CCN(C(=O)NCc2cc[nH]n2)CC1` | -2.746 | -7.811 |
| `Cc1noc(C)c1CCC(=O)N[C@@H]1CC[C@@H](Oc2cccnc2)[C@@H]1O` | - | -0.2444 |
| `CCn1cc(NC(=O)NCc2ccc(CN3CCOCC3)cc2)cn1` | -35.71 | -3.513 |
| `CC(C)CN1CC(c2nc(-c3ccc(F)cc3)c[nH]2)CC1=O` (centres undefined) | -1.834 | -35.73 |
| `CN(C)c1nccnc1C1CCN(C(=O)C2(C)CCCCN2C)CC1` (centres undefined) | 17.26 | 6.526 |
| `CCc1ccccc1-c1cc(C)nc(N)n1` | -45.36 | -27.32 |
| `CCOCC1CCN(C(=O)Nc2ccc3c(c2)CCCN3C)C1` (centres undefined) | 9.475 | -24.26 |
| `Cc1ccc(CN(C)C(=O)C(C)n2ccnc2C(C)C)o1` (centres undefined) | -19.2 | -5.633 |
| `CN(Cc1ccc(Cl)s1)C(=O)COc1cccc(C(N)=O)c1` | 17.57 | -5.977 |
| `O=C(c1ccc(-c2cnco2)cc1)N1CCC(Nc2cccnn2)CC1` | 11.06 | -3.062 |
| `Cc1cnn(CC2CCCCN2C(=O)c2ccc3c(c2)nnn3C)c1` (centres undefined) | -30.69 | -1.64 |
| `O=C(O)C(F)(F)F.O=C(O)C(F)(F)F.[H][C@]12C[C@@H](CN3CCCC3)N(c3nccs3)[C@@]1([H])CCN(C(=O)CC)C2` | -33.28 | - |
| `CCN1CCCC(c2nc(O)c3cc(C)ccc3n2)C1` (centres undefined) | 13.13 | -16.51 |
| `CN(C(=O)COC1CCCC1)C1CCN(CC2CCOC2)CC1` (centres undefined) | 4.877 | -13.86 |
| `CC(C)c1ccc(OCCC(=O)NCCC(=O)N(C)C)cc1` | 3.837 | -30.98 |
| `c1ccc(CN2CC[C@H]3CO[C@H](CNc4ncccn4)[C@H]3C2)nc1` | - | -12.03 |
| `CCC(CO)N(Cc1cccc(-n2cccn2)c1)Cc1cccs1` (centres undefined) | -5.804 | -5.193 |
| `COc1ccccc1COCC(O)CN1CCC(c2ccn[nH]2)CC1` (centres undefined) | 5.718 | -11.63 |
| `CCc1nnc(CN2CCc3cnc(C)nc3C2)o1` | 17.96 | -0.6121 |
| `Cc1nnc(C(NS(=O)(=O)c2cc(C#N)ccc2C)C(C)C)[nH]1` (centres undefined) | 7.045 | -15.81 |
| `Cc1ncc(CN(C)C(=O)c2ccc3c(c2O)OC(C)(C)C3)s1` | 4.615 | -49.1 |
| `c1coc(-c2noc(CN3CCc4c(ncn4C4CC4)C3)n2)c1` | 9.971 | -6.264 |
| `Cn1cc(Cl)cc1C(=O)N1CCN(CCc2cccs2)CC1` | -10.94 | -16.06 |
| `CC(=O)NCC(=O)N1CCOCC(Cc2ccc3c(ccn3C)c2)C1` (centres undefined) | -6.091 | -1.578 |
| `COc1cccc(C(O)C(=O)N(C)CCc2ccccn2)c1` (centres undefined) | -12.22 | 15.56 |
| `O=C(N1CCCCC1)N1CCN(CC(O)c2ccccc2)CC1` (centres undefined) | 6.541 | -1.507 |
| `CCN(CC(=O)Nc1cc(Cl)ccc1C)C(=O)c1ccc(=O)[nH]n1` | 19.83 | -17.45 |
| `Nc1nc2c(c(N3CCOCC3)n1)CCN(C(=O)c1ccc[nH]1)CC2` | -7.623 | 8.731 |
| `CCn1c(SCC(=O)N2CCCC2)nc2cc(C)[nH]c2c1=O` | 11.09 | 54.61 |
| `Nc1cc2c(nn1)CCN(C(=O)c1csc(-c3ccco3)n1)C2` | 5.63 | -23.04 |
| `Cn1cccc1C(=O)N1CC[C@H]2[C@H]1CCN2CC1CC1` | - | -45.4 |
| `O=C(O)C(F)(F)F.O=C(O)C(F)(F)F.O=C(O)C(F)(F)F.[H][C@@]12CCN(Cc3cnn(C)c3)[C@]1([H])CC[C@@H](C(=O)Nc1cccnc1C)O2` | 4.641 | - |
| `Cc1nc2ccc(C(=O)N(CCC#N)CCC#N)cc2nc1C` | -2.403 | -4.36 |
| `CCc1cc(NCCCc2nc(C)no2)nc(-c2ccncc2)n1` | 8.95 | -10.88 |
| `O=C(O)C(F)(F)F.[H][C@@]12CN(Cc3ccc(C)o3)CCC[C@]1(C(=O)O)CN(c1ncccn1)C2` | 2.778 | - |
| `N#Cc1cccc(S(=O)(=O)N2CC(CC(=O)O)c3ccccc32)c1` (centres undefined) | 0.2988 | -17.11 |
| `O=C1CCC(=O)N1CCOc1nc(-c2ccccc2Cl)no1` | 10.69 | -4.668 |
| `O=S(=O)(CC1CCCCO1)Nc1cnn(Cc2ccccc2)c1` (centres undefined) | -3.636 | -5.221 |
| `Cc1ccsc1C(=O)NCCCn1nc2ccccn2c1=O` | 3.662 | -11.95 |
| `CCCc1cc(C(=O)N2Cc3cnc(C(C)(C)C)nc3C2)ccn1` | 18.83 | 11.66 |
| `O=C(COc1cccc(F)c1)N1C[C@@H](O)[C@H](N2CCCC2)C1` | 8.776 | -26.23 |
| `COc1cc(C(=O)N2CCO[C@H]3[C@H](OCC4CC4)CC[C@@H]32)ccc1F` | - | -36.49 |
| `Cn1cnc(S(=O)(=O)N2CCO[C@H]3[C@@H](OCC4CC4)CC[C@@H]32)c1` | - | 2.717 |
| `Cc1ccc(N2CCC3(CC2)COCCN(c2nccs2)C3)nn1` | - | -16.64 |
| `CCn1cnnc1CCNC(=O)C1COc2ccc(OC)cc2C1` (centres undefined) | -2.74 | -35.85 |
| `O=C(Cc1ccccc1F)NCC1CCN(CCc2ccccc2)C1` (centres undefined) | 1.399 | -6.547 |
| `O=C(O)C(F)(F)F.[H][C@@]12CN(c3nnc(C)s3)C[C@@H](C(=O)NCC3CC3)[C@]1([H])CCO2` | -29.46 | - |
| `CN(C)Cc1cn(-c2ccccc2C(=O)NCC2CCCCN2C)cn1` (centres undefined) | 0.3699 | -13 |
| `CN(C(=O)NCc1ccncc1)C1CCN(c2ccccc2)C1=O` (centres undefined) | -5.222 | -9.779 |
| `Cc1cc(NC(=O)N2CCCC2C(C)(C)O)c2ncccc2c1` (centres undefined) | -0.08097 | -6.042 |
| `CC(C)N1CCC(CC(=O)NCc2cc(O)ncn2)CC1` | 9.54 | -6.527 |
| `COc1cccc(CCNC(=O)CN2CCCC2c2noc(C)n2)c1` (centres undefined) | -3.662 | -7.328 |
| `CCN(Cc1ccc2c(c1)OCO2)C(=O)c1cccnc1O` | -13.57 | -0.984 |
| `[H][C@]12OCCC[C@]1([H])N(C(=O)c1ccccn1)C[C@H]2OCc1cccnc1` | 5.648 | - |
| `Cc1nc(C)n(C2CCCN(C(=O)c3cccnc3NC(C)C)C2)n1` (centres undefined) | -0.3474 | -7.848 |
| `N#Cc1cccc(S(=O)(=O)NC(=O)c2csc(-c3ccco3)n2)c1` | -3.75 | -2.465 |
| `CN1C(Cn2cccn2)C[C@@H]2CN(Cc3cnn(C)c3)CC[C@@H]21` (some centres undefined) | - | -12.81 |
| `CN(Cc1ccccc1)C(=O)CN1CCCC1c1cnn(C)c1` (centres undefined) | 15.1 | -6.919 |
| `NC(=O)C1CCN(C(=O)Cn2nc(-c3ccccc3)oc2=O)C1` (centres undefined) | 20.34 | -10.3 |
| `CSCCC1c2nc[nH]c2CCN1Cc1[nH]c2ccc(F)cc2c1C` (centres undefined) | -17.32 | 2.859 |
| `CC(C)Cc1cn(C2CCN(C(C)CC3CC3)CC2)nn1` (centres undefined) | -4.037 | 4.39 |
| `COCCn1ccc2ccc(C(=O)O)cc21` | 7.761 | -3.382 |
| `c1cc(CN2CC[C@@H]3CN(c4cnccn4)C[C@@H]3C2)ccn1` | - | -15.88 |
| `Cc1cc(C(C)(O)CNC(=O)C2(C)CCCC2)c(C)o1` (centres undefined) | 1.154 | -15.44 |
| `CC(=O)NCCn1ccnc1-c1cccc(C(C)N(C)C)c1` (centres undefined) | 0.2002 | 0.8487 |
| `[H][C@@]12CN(c3ccccn3)C[C@]1([H])N(Cc1ccccc1OC)C(=O)O2` | -0.8929 | - |
| `Cc1cc(CNC2CCc3nc(C(C)C)nn3C2)on1` (centres undefined) | 20.76 | 1.628 |
| `Cc1nc2n(n1)CC(NCc1nc(C)c(C)o1)CC2` (centres undefined) | 9.779 | -0.1846 |
| `CCN(C)S(=O)(=O)NCC1CCCN(Cc2ccccc2F)C1` (centres undefined) | -4.043 | -35.73 |
| `Cc1cc(NC(=O)CN2CCCC2c2noc(C)n2)n(C)n1` (centres undefined) | -0.3235 | -16.14 |
| `O=C(Nc1ccc(CCN2CCSCC2)cc1)NC1CC1` | 11.28 | -10.84 |
| `COCCSCC(=O)NCc1ccnc(N(C)C)c1` | -3.87 | -6.727 |

Once more, the final 7:

{"smiles": "[H][C@@]12CN(c3ccccn3)C[C@]1([H])N(Cc1ccccc1OC)C(=O)O2", "Toxoplasma": -0.8929}
{"smiles": "Cc1cc(CNC2CCc3nc(C(C)C)nn3C2)on1", "stereo": "centres undefined", "Toxoplasma": 20.76, "Pks13 thioesterase": 1.628}
{"smiles": "Cc1nc2n(n1)CC(NCc1nc(C)c(C)o1)CC2", "stereo": "centres undefined", "Toxoplasma": 9.779, "Pks13 thioesterase": -0.1846}
{"smiles": "CCN(C)S(=O)(=O)NCC1CCCN(Cc2ccccc2F)C1", "stereo": "centres undefined", "Toxoplasma": -4.043, "Pks13 thioesterase": -35.73}
{"smiles": "Cc1cc(NC(=O)CN2CCCC2c2noc(C)n2)n(C)n1", "stereo": "centres undefined", "Toxoplasma": -0.3235, "Pks13 thioesterase": -16.14}
{"smiles": "O=C(Nc1ccc(CCN2CCSCC2)cc1)NC1CC1", "Toxoplasma": 11.28, "Pks13 thioesterase": -10.84}
{"smiles": "COCCSCC(=O)NCc1ccnc(N(C)C)c1", "Toxoplasma": -3.87, "Pks13 thioesterase": -6.727}

Data taken from ChEMBL document CHEMBL3988442, “University of Dundee, Small-Polar-MMV Screening Library” (2021).